No constants are given. Whether binding was seen depends on the method and setting. Binding seen in cells or lysates may run through a third protein.

In this test the target is T1, tumor necrosis factor receptor-associated protein 1 (TRAP1) (rat (endogenous in H9C2 and in rat heart tissue)) (UniProt Q5XHZ0).
T1 sequence: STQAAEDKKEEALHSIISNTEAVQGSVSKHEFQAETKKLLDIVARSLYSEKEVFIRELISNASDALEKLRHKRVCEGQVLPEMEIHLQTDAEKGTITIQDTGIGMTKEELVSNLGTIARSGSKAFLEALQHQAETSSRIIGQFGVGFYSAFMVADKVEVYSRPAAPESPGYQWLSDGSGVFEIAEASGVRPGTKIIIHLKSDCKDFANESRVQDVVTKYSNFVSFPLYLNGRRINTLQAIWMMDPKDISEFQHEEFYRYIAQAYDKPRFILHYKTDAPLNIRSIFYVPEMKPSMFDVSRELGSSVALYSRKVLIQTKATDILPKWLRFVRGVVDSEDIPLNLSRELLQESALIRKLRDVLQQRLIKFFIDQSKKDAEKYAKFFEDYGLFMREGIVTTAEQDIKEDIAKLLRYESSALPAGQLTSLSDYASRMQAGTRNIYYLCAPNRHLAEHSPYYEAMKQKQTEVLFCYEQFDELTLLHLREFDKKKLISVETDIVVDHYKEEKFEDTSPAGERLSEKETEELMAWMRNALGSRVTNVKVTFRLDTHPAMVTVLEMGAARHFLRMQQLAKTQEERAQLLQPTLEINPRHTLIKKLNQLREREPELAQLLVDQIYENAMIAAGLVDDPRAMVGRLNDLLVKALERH
Description: co-IP; H9C2 lysate (500 μg total protein) with anti-TRAP1 or anti-MIC60 on protein A/G magnetic beads, 4 °C, 6 h, washed with PBST (PBS, 0.5% Triton X-100); Western blot. On the technique in general: A western blot detects proteins with antibodies after separation by electrophoresis.

Consider VDAC (rat (endogenous in H9C2)), for which the binding entry was “no binding”.
